Laboratory results from publication PMC6262058.
These are yes or no findings as the source states them, for the method shown. Binding can be weak; no strength is given.

Target: SmbHLH37 (yeast two-hybrid fusion) (Salvia miltiorrhiza)
Assay: two-hybrid; SmbHLH37 fused with the DNA-binding domain (pGBKT7), partners fused with the activation domain (pGADT7); yeast strain AH109; growth on SD/-Ade/-Leu/-Trp/-His/X-α-gal; images on day 5

binding: binds
Substance: SmJAZ8 (yeast two-hybrid fusion) (from UniProt A0A075BFE8)
